Experimental data published in the supplement of paper PMC12819154, “High-throughput peptide-centric local stability assay extends protein–ligand identification to membrane proteins, tissues and bacteria” (Nature Structural & Molecular Biology, 2025).
The other results are listed elsewhere or left out. Most values lie at the level of the controls, where differences are scatter.

Sequences of proteins named here, by UniProt entry; tags and fusion partners are left off. A change or cut given only in a name is not applied to a line headed by its entry.
UniProt P19182: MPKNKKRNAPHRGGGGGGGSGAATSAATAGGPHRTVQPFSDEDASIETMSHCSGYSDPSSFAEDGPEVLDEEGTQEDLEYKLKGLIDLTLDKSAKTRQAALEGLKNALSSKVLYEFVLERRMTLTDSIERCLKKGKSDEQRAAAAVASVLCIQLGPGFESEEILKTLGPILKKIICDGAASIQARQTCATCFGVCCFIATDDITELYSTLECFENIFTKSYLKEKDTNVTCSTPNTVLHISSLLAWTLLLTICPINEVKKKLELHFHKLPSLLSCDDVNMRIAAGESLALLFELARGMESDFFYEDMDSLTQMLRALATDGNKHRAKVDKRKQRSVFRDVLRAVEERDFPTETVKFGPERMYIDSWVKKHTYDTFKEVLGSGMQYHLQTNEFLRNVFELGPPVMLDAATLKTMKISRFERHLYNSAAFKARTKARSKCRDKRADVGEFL
UniProt P27656: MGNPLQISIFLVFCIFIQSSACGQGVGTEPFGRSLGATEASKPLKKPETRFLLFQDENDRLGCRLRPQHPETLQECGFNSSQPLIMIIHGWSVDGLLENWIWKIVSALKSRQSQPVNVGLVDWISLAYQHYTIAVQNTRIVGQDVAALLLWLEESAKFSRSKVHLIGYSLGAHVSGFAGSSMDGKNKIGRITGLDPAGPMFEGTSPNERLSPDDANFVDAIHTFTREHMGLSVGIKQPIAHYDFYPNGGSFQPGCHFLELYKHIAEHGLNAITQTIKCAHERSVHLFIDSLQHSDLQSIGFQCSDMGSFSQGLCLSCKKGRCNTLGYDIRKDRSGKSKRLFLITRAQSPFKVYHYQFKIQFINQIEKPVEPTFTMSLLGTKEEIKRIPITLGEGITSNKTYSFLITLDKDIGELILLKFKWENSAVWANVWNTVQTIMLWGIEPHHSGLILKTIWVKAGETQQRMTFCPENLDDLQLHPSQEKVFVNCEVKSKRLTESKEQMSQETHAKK
UniProt P26041, whole entry: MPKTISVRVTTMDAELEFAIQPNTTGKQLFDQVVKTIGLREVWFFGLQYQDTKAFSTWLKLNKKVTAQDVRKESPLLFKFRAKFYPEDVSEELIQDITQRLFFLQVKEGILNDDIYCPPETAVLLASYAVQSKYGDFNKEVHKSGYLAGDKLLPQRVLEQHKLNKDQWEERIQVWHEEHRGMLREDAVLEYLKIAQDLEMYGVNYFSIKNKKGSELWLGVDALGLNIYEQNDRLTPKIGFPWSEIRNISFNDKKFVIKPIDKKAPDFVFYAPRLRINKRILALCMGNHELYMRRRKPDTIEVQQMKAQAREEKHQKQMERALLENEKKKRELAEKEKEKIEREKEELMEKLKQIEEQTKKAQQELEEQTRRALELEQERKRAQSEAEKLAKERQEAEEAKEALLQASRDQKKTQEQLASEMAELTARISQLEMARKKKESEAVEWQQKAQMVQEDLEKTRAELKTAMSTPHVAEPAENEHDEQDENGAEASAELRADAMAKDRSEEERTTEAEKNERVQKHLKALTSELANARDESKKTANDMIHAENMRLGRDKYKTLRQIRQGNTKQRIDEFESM
UniProt P21614: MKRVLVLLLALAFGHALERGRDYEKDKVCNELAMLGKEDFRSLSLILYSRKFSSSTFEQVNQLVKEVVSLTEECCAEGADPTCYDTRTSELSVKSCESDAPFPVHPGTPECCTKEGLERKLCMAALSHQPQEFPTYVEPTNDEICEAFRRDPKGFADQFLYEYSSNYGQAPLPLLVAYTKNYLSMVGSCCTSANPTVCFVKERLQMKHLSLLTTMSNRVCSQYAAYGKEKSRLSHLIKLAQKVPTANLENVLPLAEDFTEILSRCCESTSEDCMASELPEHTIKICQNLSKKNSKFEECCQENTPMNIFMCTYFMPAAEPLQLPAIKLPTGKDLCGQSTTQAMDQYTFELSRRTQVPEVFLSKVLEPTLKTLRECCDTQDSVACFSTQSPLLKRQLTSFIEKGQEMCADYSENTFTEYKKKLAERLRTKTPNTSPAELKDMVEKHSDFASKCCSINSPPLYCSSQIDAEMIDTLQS
UniProt P18572: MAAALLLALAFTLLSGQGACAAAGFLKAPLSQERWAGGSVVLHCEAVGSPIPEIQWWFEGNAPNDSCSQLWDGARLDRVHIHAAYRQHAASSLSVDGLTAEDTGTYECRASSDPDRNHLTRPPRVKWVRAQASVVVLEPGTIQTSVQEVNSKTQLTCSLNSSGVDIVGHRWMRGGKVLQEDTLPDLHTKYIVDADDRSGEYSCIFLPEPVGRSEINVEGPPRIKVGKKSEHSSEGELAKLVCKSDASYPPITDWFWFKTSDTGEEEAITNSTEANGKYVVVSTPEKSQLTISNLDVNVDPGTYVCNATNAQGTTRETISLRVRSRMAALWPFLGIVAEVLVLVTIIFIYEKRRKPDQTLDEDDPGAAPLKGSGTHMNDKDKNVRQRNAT
UniProt P21279, whole entry: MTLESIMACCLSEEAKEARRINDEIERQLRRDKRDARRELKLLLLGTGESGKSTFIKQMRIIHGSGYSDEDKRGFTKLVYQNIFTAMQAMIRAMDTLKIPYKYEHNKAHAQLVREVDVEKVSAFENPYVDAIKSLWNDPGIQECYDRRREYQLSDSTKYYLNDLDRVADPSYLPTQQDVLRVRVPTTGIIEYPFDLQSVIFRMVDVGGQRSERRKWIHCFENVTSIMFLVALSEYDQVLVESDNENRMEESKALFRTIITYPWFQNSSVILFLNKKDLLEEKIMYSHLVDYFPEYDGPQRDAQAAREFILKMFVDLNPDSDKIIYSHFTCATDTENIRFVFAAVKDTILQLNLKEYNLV
UniProt P28656: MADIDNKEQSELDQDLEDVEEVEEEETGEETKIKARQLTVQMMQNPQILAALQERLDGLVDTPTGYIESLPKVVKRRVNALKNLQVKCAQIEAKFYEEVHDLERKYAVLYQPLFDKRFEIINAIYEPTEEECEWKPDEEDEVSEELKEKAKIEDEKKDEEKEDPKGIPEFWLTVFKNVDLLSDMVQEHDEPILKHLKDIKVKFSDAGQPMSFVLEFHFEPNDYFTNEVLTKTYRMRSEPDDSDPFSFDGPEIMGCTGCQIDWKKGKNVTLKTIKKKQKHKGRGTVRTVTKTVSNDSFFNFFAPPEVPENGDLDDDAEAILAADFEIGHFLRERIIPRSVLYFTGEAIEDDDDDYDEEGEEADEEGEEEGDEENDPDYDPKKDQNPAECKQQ
UniProt P26369, whole entry: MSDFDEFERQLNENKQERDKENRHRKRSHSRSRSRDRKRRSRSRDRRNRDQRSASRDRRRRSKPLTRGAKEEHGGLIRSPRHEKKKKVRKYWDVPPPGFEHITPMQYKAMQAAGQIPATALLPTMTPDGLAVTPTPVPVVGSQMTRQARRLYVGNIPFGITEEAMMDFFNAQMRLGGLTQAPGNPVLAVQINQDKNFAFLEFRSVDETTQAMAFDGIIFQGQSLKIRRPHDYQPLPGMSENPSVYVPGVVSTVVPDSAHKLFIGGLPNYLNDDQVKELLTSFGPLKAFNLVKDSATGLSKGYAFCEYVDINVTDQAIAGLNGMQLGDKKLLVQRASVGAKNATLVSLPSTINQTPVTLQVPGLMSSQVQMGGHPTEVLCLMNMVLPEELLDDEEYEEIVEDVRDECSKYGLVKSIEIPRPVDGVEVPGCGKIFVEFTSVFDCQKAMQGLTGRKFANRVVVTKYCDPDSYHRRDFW
UniProt P16627, whole entry: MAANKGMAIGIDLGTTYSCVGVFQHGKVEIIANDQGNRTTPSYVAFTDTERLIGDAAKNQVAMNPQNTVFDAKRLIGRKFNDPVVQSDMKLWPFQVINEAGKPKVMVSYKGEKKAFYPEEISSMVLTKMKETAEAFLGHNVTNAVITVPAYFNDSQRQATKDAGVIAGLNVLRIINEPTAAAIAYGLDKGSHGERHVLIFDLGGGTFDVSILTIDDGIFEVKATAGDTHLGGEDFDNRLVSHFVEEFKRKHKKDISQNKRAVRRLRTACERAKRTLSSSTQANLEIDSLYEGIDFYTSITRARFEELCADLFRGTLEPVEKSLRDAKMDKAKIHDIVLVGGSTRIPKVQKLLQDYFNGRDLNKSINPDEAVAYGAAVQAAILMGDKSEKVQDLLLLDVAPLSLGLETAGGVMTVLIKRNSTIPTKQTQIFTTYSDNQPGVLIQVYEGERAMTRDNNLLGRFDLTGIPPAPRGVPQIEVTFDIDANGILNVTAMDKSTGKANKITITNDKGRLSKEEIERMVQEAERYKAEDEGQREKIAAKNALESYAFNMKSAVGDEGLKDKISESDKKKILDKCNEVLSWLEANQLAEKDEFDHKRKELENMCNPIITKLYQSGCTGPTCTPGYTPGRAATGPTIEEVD
UniProt P32261, whole entry: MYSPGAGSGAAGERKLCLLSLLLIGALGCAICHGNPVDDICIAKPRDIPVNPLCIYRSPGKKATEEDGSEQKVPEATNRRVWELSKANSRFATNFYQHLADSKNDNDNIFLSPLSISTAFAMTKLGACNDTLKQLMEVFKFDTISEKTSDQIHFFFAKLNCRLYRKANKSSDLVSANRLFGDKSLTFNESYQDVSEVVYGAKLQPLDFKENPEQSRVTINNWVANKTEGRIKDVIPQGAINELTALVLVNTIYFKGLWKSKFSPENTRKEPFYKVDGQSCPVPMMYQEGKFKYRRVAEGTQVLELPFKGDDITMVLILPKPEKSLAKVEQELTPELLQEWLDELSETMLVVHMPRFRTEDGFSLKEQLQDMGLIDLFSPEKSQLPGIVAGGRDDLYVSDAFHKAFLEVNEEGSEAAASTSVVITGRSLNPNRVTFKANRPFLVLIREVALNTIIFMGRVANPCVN
UniProt P29319: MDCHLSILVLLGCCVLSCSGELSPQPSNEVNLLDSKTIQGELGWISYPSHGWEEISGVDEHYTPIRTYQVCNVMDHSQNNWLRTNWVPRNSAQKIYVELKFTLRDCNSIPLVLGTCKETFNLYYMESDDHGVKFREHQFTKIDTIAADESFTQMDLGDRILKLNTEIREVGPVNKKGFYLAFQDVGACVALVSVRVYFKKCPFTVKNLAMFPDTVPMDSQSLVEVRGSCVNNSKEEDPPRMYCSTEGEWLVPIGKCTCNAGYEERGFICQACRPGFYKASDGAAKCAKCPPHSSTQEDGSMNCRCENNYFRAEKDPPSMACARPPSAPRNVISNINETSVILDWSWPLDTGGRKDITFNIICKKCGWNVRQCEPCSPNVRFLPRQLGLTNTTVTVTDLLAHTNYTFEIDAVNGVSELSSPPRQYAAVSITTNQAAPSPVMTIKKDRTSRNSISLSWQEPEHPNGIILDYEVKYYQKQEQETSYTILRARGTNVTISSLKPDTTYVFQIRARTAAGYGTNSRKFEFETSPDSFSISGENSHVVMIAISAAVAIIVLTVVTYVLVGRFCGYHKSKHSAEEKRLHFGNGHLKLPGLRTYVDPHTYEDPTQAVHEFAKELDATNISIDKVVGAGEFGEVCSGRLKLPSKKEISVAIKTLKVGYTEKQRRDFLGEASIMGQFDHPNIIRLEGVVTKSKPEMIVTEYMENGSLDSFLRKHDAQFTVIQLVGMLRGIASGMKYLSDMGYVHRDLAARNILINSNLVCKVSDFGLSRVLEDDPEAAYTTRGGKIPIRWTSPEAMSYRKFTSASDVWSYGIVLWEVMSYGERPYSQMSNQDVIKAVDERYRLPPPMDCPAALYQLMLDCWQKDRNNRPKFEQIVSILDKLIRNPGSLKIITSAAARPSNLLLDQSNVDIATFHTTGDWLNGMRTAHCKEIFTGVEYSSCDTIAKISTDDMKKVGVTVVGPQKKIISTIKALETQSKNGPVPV
UniProt P35330: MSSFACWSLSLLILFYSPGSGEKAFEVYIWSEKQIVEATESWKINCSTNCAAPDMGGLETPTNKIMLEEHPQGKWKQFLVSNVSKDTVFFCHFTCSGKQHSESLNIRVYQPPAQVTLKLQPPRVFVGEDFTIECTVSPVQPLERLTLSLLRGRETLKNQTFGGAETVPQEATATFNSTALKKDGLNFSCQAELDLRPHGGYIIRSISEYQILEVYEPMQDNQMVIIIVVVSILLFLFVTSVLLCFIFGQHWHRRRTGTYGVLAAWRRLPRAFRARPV
UniProt P26883, whole entry: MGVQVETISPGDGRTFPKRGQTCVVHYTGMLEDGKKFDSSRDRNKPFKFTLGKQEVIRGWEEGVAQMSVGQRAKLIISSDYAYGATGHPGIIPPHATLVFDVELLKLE
UniProt P18242: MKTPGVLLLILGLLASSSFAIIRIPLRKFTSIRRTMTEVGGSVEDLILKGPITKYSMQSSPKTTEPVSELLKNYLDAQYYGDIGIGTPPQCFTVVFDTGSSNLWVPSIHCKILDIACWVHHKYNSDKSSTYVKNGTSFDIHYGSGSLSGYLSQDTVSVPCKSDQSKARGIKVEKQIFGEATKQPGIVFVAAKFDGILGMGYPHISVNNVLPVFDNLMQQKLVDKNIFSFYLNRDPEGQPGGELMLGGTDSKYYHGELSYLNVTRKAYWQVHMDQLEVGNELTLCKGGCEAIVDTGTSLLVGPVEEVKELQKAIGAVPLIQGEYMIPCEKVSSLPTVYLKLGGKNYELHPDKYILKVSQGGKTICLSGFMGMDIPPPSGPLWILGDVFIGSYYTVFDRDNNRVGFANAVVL
UniProt P17665: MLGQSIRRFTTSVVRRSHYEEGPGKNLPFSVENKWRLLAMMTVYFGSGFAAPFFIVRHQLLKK

The targets below were run with CN[C@@H]1C[C@H]2O[C@@](C)([C@@H]1OC)n1c3ccccc3c3c4c(c5c6ccccc6n2c5c31)C(=O)NC4 [staurosporine] (assay: log2 fold change of tryptic peptide abundance, ligand vs vehicle (limited proteolysis) (log2 ratio); higher = more trypsin-susceptible (destabilized)). Conditions: ligand concentration: 20 uM; sample: mouse liver crude lysate; replicate design: treated separately.
“UniProt P19182 (peptide sequence: HLYNSAAFK, peptide start residue: 421)” showed a log2 fold change of -0.365. “UniProt P34960 (peptide sequence: TNRNFLKEK, peptide start residue: 59)” was tested, and the log2 fold change was 0.977. In the case of “UniProt P19426 (peptide sequence: MLVIPPGLSEEEEALQKK, peptide start residue: 1)”, the log2 fold change is reported as 0.22. “UniProt P21958 (peptide sequence: EGSVGEQGTHLQLMK, peptide start residue: 693)” showed a log2 fold change of 0.196. “UniProt P27656 (peptide sequence: VFVNCEVK, peptide start residue: 484)” gave a log2 fold change of -0.623. “UniProt P26041 (peptide sequence: AQSEAEKLAK, peptide start residue: 382)” was tested, and the log2 fold change was -0.166. Work on “UniProt P21614 (peptide sequence: HLSLLTTMSNR, peptide start residue: 208)” yielded a log2 fold change of 0.244. “UniProt P33242 (peptide sequence: KAQIRANGFK, peptide start residue: 110)” was tested, and the log2 fold change was -0.129. “UniProt P18572 (peptide sequence: GSGTHMNDKDKNVR, peptide start residue: 371)” gave a log2 fold change of -0.422. “UniProt P23708 (peptide sequence: EKDSPHMQDPNQADEEAMTQIIR, peptide start residue: 322)” gave a log2 fold change of 0.202. “UniProt P20357 (peptide sequence: SGILVPSEK, peptide start residue: 1635)” gave a log2 fold change of -0.192. “UniProt P20067 (peptide sequence: VEILQHVIDYIR, peptide start residue: 85)” gave a log2 fold change of 0.421. “UniProt P33587 (peptide sequence: WIHSYIGEK, peptide start residue: 443)” showed a log2 fold change of -0.399. In the case of “UniProt P21279 (peptide sequence: RINDEIER, peptide start residue: 20)”, the log2 fold change is reported as -0.136. “UniProt P18608 (peptide sequence: KVSADGAAKAEPK, peptide start residue: 5)” was tested, and the log2 fold change was -0.284. Work on “UniProt P20065 (peptide sequence: KTETQEK, peptide start residue: 26)” yielded a log2 fold change of -0.519. “UniProt P31001 (peptide sequence: NISEAEEWYK, peptide start residue: 287)” gave a log2 fold change of -0.0851. In the case of “UniProt P21981 (peptide sequence: SSPIYVGR, peptide start residue: 215)”, the log2 fold change is reported as 0.217. “UniProt P17182 (peptide sequence: IGAEVYHNLK, peptide start residue: 184)” was tested, and the log2 fold change was 0.325. “UniProt P27038 (peptide sequence: GLAYLHEDIPGLK, peptide start residue: 299)” gave a log2 fold change of -0.568. For “UniProt P28656 (peptide sequence: YAVLYQPLFDKR, peptide start residue: 106)”, the log2 fold change was -0.161. Target “UniProt P26369 (peptide sequence: EEHGGLIR, peptide start residue: 71)” has a log2 fold change of -0.175. “UniProt P28474 (peptide sequence: IIGIDINKDKFAK, peptide start residue: 219)” showed a log2 fold change of 0.0949. Work on “UniProt P27612 (peptide sequence: TVNIYFPK, peptide start residue: 530)” yielded a log2 fold change of -0.281. With “UniProt P16627 (peptide sequence: ITITNDKGR, peptide start residue: 501)” the log2 fold change was -0.392. With “UniProt P32261 (peptide sequence: DIPVNPLCIYRSPGKK, peptide start residue: 47)” the log2 fold change was 0.169. Work on “UniProt P29319 (peptide sequence: ASDGAAK, peptide start residue: 279)” yielded a log2 fold change of 0.165. “UniProt P28658 (peptide sequence: VEQDSLLTAFR, peptide start residue: 123)” gave a log2 fold change of 0.326. Work on “UniProt P23953 (peptide sequence: AISESGVVINTNVGKK, peptide start residue: 243)” yielded a log2 fold change of -0.34. With “UniProt P35330 (peptide sequence: TGTYGVLAAWR, peptide start residue: 256)” the log2 fold change was 0.163. Target “UniProt P26883 (peptide sequence: RGQTCVVHYTGMLEDGKK, peptide start residue: 19)” has a log2 fold change of -0.113. For “UniProt P24452 (peptide sequence: EGGVESAFHK, peptide start residue: 119)”, the log2 fold change was -0.243. Work on “UniProt P28063 (peptide sequence: ATAGSYISSLR, peptide start residue: 92)” yielded a log2 fold change of 0.586. Target “UniProt P18242 (peptide sequence: YSMQSSPK, peptide start residue: 55)” has a log2 fold change of 0.138. “UniProt P26040 (peptide sequence: ITEAEKNER, peptide start residue: 518)” showed a log2 fold change of -0.508. With “UniProt P17932 (peptide sequence: FKGQILMPNIGYR, peptide start residue: 49)” the log2 fold change was 0.0922. Target “UniProt P17751 (peptide sequence: TATPQQAQEVHEKLR, peptide start residue: 176)” has a log2 fold change of -0.262. “UniProt P27577 (peptide sequence: AAVDLKPTLTIIK, peptide start residue: 3)” was tested, and the log2 fold change was -0.269. “UniProt P17665 (peptide sequence: NLPFSVENK, peptide start residue: 26)” gave a log2 fold change of -0.158.
